# This is one part of the list.
# By UniProt entry, the sequences of proteins in these tests, tags left out. Where a name states a change or a piece, a line headed by the entry shows the natural chain unless it says otherwise.
# UniProt O15397, whole entry, looked up: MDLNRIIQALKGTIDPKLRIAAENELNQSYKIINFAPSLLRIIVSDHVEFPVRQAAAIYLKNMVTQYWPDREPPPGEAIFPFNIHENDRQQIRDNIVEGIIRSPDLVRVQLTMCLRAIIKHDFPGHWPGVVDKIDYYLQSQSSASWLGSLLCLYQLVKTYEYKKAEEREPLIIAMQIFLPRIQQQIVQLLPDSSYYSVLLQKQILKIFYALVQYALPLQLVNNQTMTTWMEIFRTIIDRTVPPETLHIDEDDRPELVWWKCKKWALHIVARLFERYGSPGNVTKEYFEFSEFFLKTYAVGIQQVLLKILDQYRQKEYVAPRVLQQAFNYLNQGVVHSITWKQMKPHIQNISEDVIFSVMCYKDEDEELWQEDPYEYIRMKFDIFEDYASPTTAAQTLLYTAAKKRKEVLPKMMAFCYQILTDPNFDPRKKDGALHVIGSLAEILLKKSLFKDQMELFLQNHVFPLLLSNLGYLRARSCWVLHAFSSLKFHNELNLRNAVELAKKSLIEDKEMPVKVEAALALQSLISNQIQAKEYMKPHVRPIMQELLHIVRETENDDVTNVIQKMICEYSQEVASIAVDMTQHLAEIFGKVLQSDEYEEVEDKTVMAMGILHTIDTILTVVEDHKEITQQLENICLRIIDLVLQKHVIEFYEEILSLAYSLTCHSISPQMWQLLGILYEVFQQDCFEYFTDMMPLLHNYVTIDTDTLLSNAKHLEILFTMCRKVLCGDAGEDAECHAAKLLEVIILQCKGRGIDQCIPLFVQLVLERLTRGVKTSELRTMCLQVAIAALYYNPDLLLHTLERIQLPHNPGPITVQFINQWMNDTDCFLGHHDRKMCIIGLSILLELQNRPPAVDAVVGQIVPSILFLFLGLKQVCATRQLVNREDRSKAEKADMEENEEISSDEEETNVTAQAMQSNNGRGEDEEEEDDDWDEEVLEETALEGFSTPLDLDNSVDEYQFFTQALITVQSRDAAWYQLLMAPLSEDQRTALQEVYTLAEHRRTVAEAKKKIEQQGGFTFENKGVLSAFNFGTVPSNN
# UniProt Q12906, whole entry, looked up: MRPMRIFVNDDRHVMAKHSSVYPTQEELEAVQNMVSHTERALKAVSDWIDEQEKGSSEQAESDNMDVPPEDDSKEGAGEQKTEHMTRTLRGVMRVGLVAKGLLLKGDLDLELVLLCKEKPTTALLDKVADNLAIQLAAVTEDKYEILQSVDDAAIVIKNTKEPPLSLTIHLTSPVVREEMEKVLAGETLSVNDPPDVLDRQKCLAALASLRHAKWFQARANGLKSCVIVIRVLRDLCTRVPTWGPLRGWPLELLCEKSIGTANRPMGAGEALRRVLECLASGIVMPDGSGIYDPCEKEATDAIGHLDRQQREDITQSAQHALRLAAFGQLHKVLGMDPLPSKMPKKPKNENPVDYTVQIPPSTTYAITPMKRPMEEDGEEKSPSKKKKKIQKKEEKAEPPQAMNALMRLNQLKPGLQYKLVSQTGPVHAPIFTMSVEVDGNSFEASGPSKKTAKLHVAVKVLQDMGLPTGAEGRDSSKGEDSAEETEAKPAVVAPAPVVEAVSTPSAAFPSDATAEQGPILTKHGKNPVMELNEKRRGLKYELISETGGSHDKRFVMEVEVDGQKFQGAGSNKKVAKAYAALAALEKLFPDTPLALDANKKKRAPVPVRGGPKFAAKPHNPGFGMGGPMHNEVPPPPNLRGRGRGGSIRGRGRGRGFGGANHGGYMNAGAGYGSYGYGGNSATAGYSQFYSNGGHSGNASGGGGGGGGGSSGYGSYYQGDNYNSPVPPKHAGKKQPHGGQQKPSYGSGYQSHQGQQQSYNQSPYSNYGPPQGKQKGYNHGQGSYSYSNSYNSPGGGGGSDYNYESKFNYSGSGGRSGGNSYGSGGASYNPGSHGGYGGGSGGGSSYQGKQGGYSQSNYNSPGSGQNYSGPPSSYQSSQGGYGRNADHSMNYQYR
# UniProt P29218: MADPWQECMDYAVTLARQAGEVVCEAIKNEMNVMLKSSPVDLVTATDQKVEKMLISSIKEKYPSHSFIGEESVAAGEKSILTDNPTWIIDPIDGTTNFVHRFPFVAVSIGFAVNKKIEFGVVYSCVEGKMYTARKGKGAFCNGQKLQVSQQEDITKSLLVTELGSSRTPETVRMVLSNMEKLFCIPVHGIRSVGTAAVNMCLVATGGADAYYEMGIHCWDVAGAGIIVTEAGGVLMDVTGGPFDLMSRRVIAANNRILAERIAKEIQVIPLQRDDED
# UniProt P01876, whole entry, looked up: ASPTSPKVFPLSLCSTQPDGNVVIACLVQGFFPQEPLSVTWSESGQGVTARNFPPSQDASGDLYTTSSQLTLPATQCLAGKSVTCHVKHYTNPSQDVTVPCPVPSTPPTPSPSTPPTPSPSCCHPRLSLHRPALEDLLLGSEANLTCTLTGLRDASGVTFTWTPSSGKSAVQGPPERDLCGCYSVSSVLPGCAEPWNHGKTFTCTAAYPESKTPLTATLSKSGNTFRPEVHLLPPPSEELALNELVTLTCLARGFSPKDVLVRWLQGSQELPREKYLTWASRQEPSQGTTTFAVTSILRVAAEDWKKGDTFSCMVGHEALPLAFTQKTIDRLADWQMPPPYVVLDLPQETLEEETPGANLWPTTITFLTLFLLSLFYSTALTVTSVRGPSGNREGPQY
# UniProt Q8IU81: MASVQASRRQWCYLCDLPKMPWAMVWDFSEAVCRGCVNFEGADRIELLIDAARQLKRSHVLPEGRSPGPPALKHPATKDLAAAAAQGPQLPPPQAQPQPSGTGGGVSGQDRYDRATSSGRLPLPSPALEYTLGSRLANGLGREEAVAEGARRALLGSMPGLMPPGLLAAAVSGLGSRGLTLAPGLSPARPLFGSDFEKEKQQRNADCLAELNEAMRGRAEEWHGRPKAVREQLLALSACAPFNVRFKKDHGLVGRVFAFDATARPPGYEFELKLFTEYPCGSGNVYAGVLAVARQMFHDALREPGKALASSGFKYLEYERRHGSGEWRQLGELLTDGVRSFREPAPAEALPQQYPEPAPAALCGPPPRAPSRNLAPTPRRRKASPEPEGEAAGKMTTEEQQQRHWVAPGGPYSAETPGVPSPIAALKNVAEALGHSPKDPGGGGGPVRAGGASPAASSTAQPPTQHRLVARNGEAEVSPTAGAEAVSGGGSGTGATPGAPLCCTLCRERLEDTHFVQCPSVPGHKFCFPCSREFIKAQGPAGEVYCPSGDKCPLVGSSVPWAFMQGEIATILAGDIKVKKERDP
# UniProt P51617, whole entry, looked up: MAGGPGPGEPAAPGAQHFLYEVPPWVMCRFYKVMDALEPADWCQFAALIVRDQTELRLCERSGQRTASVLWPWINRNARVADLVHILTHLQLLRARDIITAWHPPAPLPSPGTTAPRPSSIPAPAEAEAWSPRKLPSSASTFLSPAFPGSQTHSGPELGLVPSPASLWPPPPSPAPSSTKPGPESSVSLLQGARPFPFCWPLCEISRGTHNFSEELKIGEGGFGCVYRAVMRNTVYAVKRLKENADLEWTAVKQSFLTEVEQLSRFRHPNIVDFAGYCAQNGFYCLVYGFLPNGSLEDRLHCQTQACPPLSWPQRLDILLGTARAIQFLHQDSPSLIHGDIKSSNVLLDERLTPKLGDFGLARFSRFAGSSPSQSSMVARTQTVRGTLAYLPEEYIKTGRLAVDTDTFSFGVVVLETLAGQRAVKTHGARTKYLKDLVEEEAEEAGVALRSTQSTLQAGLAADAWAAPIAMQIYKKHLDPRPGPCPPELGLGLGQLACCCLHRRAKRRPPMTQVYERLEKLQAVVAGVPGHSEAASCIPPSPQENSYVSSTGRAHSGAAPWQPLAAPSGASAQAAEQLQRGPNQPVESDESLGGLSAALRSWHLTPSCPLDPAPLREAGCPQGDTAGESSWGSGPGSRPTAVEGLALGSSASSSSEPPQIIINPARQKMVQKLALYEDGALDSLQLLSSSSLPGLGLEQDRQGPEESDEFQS
# UniProt Q9NRY2: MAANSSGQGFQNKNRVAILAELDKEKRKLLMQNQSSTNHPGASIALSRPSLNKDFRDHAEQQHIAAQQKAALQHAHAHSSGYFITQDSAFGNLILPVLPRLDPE
# UniProt Q9BUE6: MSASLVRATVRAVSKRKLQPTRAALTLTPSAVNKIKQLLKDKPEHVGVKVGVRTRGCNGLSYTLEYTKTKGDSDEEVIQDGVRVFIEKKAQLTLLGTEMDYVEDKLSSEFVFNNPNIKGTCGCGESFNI
# UniProt P0DMQ5: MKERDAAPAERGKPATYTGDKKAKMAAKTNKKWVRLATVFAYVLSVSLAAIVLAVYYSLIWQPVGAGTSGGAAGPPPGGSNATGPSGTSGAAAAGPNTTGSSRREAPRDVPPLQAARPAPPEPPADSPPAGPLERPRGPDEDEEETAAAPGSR
# UniProt Q9BT40: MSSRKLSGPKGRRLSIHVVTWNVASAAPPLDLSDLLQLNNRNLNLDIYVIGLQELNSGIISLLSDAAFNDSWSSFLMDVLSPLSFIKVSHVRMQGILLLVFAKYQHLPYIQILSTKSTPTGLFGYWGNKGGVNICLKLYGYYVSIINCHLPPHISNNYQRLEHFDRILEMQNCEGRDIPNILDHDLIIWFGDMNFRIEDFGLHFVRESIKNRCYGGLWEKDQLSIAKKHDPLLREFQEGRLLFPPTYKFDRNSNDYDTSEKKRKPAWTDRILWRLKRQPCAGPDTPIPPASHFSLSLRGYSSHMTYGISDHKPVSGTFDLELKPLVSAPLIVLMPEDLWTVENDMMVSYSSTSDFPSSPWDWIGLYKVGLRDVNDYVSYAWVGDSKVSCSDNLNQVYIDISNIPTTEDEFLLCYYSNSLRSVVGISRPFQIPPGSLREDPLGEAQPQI
# UniProt O14732: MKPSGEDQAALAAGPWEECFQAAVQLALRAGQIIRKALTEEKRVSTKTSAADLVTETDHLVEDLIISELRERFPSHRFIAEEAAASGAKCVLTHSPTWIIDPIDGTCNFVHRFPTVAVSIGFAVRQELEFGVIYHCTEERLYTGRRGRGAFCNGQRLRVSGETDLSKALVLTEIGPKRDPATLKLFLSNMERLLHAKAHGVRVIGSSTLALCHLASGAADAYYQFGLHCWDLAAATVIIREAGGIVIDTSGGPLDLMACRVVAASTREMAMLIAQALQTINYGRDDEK
# UniProt Q9H2S9: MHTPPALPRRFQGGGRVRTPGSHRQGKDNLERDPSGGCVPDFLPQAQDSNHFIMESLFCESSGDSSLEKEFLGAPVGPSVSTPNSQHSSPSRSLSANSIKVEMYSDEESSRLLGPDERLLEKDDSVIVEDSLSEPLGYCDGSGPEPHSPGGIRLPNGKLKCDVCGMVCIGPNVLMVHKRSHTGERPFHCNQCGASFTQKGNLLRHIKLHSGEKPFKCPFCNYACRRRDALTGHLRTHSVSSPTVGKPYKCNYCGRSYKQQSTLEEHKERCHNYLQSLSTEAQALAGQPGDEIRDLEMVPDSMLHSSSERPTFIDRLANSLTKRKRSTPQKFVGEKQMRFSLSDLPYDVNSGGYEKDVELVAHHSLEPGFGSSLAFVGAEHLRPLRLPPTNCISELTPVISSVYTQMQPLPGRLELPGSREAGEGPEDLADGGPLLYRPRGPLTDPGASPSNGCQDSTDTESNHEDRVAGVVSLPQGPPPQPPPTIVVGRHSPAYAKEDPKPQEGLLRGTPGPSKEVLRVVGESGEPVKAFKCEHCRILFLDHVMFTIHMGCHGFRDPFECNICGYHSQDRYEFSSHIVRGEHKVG
# UniProt Q8IWB1: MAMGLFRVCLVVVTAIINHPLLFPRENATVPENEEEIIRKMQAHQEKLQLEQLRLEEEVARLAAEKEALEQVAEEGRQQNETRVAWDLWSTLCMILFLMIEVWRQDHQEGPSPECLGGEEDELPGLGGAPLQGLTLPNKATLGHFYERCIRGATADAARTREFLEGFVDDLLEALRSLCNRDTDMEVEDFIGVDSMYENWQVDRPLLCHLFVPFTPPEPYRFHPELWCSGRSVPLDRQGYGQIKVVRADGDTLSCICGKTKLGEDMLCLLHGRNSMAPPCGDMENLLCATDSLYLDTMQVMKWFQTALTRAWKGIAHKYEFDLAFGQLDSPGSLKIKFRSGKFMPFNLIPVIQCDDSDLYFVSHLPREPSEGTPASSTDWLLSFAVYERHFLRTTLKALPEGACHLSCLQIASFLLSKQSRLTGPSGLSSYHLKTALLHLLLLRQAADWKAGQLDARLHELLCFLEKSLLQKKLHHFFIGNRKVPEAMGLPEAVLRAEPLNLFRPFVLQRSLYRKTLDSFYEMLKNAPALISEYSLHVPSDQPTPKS
# UniProt Q8IY31, whole entry, looked up: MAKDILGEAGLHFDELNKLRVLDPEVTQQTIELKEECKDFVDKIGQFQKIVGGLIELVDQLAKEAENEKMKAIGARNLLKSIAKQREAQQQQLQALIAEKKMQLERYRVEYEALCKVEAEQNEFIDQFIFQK
# UniProt Q96AB3: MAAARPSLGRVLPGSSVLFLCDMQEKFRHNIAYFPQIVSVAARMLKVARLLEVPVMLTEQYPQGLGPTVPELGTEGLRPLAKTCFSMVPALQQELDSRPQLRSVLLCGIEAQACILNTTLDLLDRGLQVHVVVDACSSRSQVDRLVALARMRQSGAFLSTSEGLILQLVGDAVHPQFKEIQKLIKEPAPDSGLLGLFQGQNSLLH
# Compound: CC1=C(C=C(C=C1)NC(=O)C2=CC(=CC=C2)C(C)(C)C#N)NC3=CC4=C(C=C3)N=CN(C4=O)C
# Experiment: log2 fold change, soluble protein after heating vs DMSO (PISA); higher = thermal stabilisation; K562 cells, 10 uM, 30 min; active = over 0.2 and 3.5 SD of the protein, either way, in both replicates (recomputed)
# Summary of the method: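 Quantification of soluble protein used TMTpro 16plex LC-MS/MS, with channel sums equalised. Samples were the supernatant after 21,000xg for 90 min of pooled aliquots from K562 cells (2×10^6 cells/mL) treated with 10 μM compound for 30 min, heated for 3 min over 48°C-58°C, and extracted in PBS with 0.5% NP-40 at 4°C. Values, from duplicates, describe thermal stability against control samples on a log2 fold-change scale.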
row,Target,log2 fold change
1,IPO8 (UniProt O15397),inactive: -0.105
2,ITGA2B (UniProt P08514),inactive: -0.071
3,ILF3 (UniProt Q12906),inactive: 0.106
4,IL18R1 (UniProt Q13478),inactive: 0.232
5,IP6K1 (UniProt Q92551),inactive: 0.443
6,IMPA1 isoform 3 (UniProt P29218),inactive: -0.029
7,IGHA1 (UniProt P01876),inactive: -0.134
8,IRF2BP1 (UniProt Q8IU81),inactive: -0.073
9,IFNGR1 (UniProt P15260),inactive: -0.246
10,IFNAR1 (UniProt P17181),inactive: -0.021
11,ITM2C (UniProt Q9NQX7),inactive: 0.096
12,IRAK1 (UniProt P51617),inactive: -0.16
13,INF2 (UniProt Q27J81),inactive: -0.073
14,IL10RB (UniProt Q08334),inactive: 0.19
15,INIP (UniProt Q9NRY2),inactive: 0.25
16,IGFBP5 (UniProt P24593),inactive: -0.296

row,Target,log2 fold change
1,IGFBP3 isoform 2 (UniProt P17936),inactive: -0.187
2,ISCA1 isoform 2 (UniProt Q9BUE6),inactive: 0.03
3,INAFM2 (UniProt P0DMQ5),inactive: 0.037
4,IGLL5 (UniProt B9A064),inactive: -0.095
5,INPP5K (UniProt Q9BT40),inactive: -0.005
6,IKZF1 isoform 2 (UniProt Q13422),inactive: 0.141
7,IMPA2 (UniProt O14732),inactive: 0.038
8,IKZF4 (UniProt Q9H2S9),inactive: -0.02
9,IRF2 (UniProt P14316),inactive: 0.001
10,INTS8 (UniProt Q75QN2),inactive: 0.11
11,ITPRIP (UniProt Q8IWB1),inactive: -0.044
12,INTS1 (UniProt Q8N201),inactive: -0.273
13,ING1 (UniProt Q9UK53),inactive: -0.159
14,IGKC (UniProt P01834),inactive: -0.097
15,IFT20 isoform 2 (UniProt Q8IY31),inactive: -0.087
16,ISOC2 (UniProt Q96AB3),inactive: 0.094

# Quoted from the listing (2 entries):
row,Target,log2 fold change
8,IKZF4 (UniProt Q9H2S9),inactive: -0.02
9,IRF2 (UniProt P14316),inactive: 0.001

# From the supplement of paper PMC10849652
